The test in a line: qHTS Assay for Modulators of Lamin A Splicing. The following applies: HeLa LMNA splicing GFP/RFP minigene ratio, 48 h. A digest of the protocol: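 S3 HeLa cells stably expressing lamin A-EGFP splicing minigene plus DsRed2, 600 cells/well, 48 h compound exposure at 37C. Laser-scanning cytometry; analysed as GFP (500-530 nm)/RFP (575-640 nm) total intensity ratio; 0.5% DMSO vehicle.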

The mark [1] stands for this setting: measured here: RFP viability control channel.
The mark [2] stands for this setting: measured here: GFP splicing reporter channel.

The list shows a part of the results. Further columns of the screen follow, without active or inactive calls. The list favours compounds with an active or inconclusive main result. The note in brackets gives the kind of curve behind each potency; many fits are weak.

Data on 36 compounds can be found in PubChem BioAssay AID1487 (National Center for Advancing Translational Sciences (NCATS), 2009).

One may read the AC50 as the midpoint of the concentration-response curve, whichever way the signal moves. Consider `CC(C)(C)c1ccccc1NC(=S)NC1CCCCC1`, for which the AC50 under setting [1] was 0.0447 µM [falling, full curve, poor fit].

In the case of `COc1cc(/C=N/NC(=O)c2cccc(S(=O)(=O)N3CCCCC3)c2)cc(Br)c1O`, the AC50 under setting [1] is 0.708 µM [rising, full curve, poor fit].

Consider `COC(=O)CN1C(=S)N(Cc2ccccc2)C(=O)C1CC(=O)Nc1ccc(Br)cc1` (centres undefined), for which the AC50 under setting [2] was 35.5 µM [falling, single point] and the AC50 under setting [1] is 35.5 µM [falling, single point].

With `O=c1cc2c(nn1Cc1ccccc1)-c1ccccc1CC2`, the AC50 under setting [1] is 0.447 µM [falling, full curve, poor fit].

As for `Cc1ccc(COC(=O)CCc2nc3ccccc3c(=O)[nH]2)cc1`, the AC50 under setting [1] is 0.0282 µM [rising, full curve, poor fit].

For `COc1ccccc1/C=N/NC(=O)C(=O)NCc1cccnc1`, the AC50 under setting [1] was 0.0355 µM [falling, full curve, poor fit].

Take `Cc1cc(C)cc(NC(=O)Cn2cc(S(=O)(=O)NC(C)(C)C)c(S(=O)(=O)NC(C)(C)C)c2)c1`: the AC50 under setting [1] was 15.8 µM [rising, single point].

For the compound `Cc1ccc(S(=O)(=O)Nc2cccc3ncccc23)s1`, the AC50 reads like this: under setting [2], 3.16 µM [rising, full curve, poor fit]; under setting [1], 12.6 µM [rising, partial curve].

With `O=C1C2CCCN2C(c2ccc(F)cc2)N1c1ccc(Cl)cc1` (centres undefined), the AC50 under setting [1] is 31.6 µM [rising, single point].

Turning to `CCOC(=O)NNC(=O)C12CC3CC(CC(C3)C1)C2`, the AC50 under setting [1] was 44.7 µM [falling, partial curve, poor fit].

For `S=c1[nH]nc(-c2ccc(Cl)cc2)n1-c1ccc2c(c1)OCCO2`, the AC50 under setting [2] was 10 µM [rising, partial curve] and the AC50 under setting [1] was 12.6 µM [rising, partial curve].

Take `CCOc1ccc(Nc2oc(-c3ccco3)nc2C#N)cc1`: the AC50 under setting [1] was 11.2 µM [rising, partial curve].

Turning to `CCCC(=O)NC(c1ccc(OC)c(OC)c1)c1cc(Cl)c2cccnc2c1O` (centres undefined), the AC50 under setting [2] is 7.08 µM [falling, partial curve, poor fit] and the AC50 under setting [1] was 8.91 µM [falling, partial curve, poor fit].

As for `COc1cc2c(cc1NC(=O)CN(C)Cc1ccc(OC)c(OC)c1)oc1ccccc12`, under setting [1], the AC50 is 5.01 µM [rising, partial curve, poor fit].

As to `CN(C)CCNC(=O)COc1ccc(C23CC4CC(CC(C4)C2)C3)cc1`, the AC50 under setting [1] is 35.5 µM [rising, single point].

In the case of `O=C(Nc1nc2ccc3ccccc3c2s1)c1ccc(N2CCCCC2)c([N+](=O)[O-])c1`, the AC50 under setting [1] was 0.562 µM [rising, full curve, poor fit].

With `O=C(O)/C=C/c1ccc2ccccc2n1`, under setting [1], the AC50 is 14.1 µM [rising, partial curve].

Turning to `COc1ccc(CCN=C(N)NS(=O)(=O)c2ccccc2)cc1`, the AC50 under setting [2] was 35.5 µM [rising, single point] and the AC50 under setting [1] was 35.5 µM [rising, single point].

On to `O=C(NCC1CCCO1)c1ccc(S(=O)(=O)N2CCC(c3nc4ccc(Cl)cc4[nH]3)CC2)cc1` (centres undefined), for which the AC50 under setting [1] was 22.4 µM [rising, single point].

For `O=c1[nH]c(N/N=C/c2ccc(O)cc2)nc2ccccc12`, under setting [1], the AC50 was 11.2 µM [rising, partial curve, poor fit].

For the compound `NS(=O)(=O)c1cccc(NC(=O)CSc2nn(-c3ccccc3)c(=S)s2)c1`, the AC50 runs as follows: under setting [2], 20 µM [rising, single point]; under setting [1], 35.5 µM [rising, single point].

As for `CCOC(=O)c1oc2ccccc2c1CSc1nnnn1-c1ccc(C)cc1`, the AC50 under setting [2] was 35.5 µM [rising, single point] and the AC50 under setting [1] was 35.5 µM [rising, single point].

As for `c1ccn2c(CNc3ncnc4sccc34)nnc2c1`, the AC50 under setting [1] is 35.5 µM [rising, single point].

For the compound `COc1ccc(C2=Nc3ccc(Br)cc3C(c3ccccc3)N2CC(=O)NN)cc1` (centres undefined), the AC50 under setting [1] is 31.6 µM [rising, single point].

For the compound `Cn1c(-c2ccccc2)c(C(=O)CC#N)c2ccccc21`, under setting [2], the AC50 is 0.794 µM [rising, full curve, poor fit].

For `O=C1CCCc2c1[nH]c1ccc(Br)cc21`, the AC50 by setting is: under setting [2], 1.41 µM [falling, full curve]; under setting [1], 1.41 µM [falling, full curve].

Turning to `COc1cccc(-c2nccc(NCc3ccccc3OC)n2)c1`, the AC50 runs as follows: under setting [2], 12.6 µM [falling, partial curve]; under setting [1], 12.6 µM [falling, partial curve].

In the case of `CCn1c(CN2CCC(C)CC2)nc2cc(NC(=O)COc3ccc([N+](=O)[O-])cc3)ccc21`, the AC50 was 10 µM [falling, partial curve] under setting [2] and 14.1 µM [falling, partial curve] under setting [1].

For the compound `Cc1cc(Cl)c(S(=O)(=O)NCC2CCCO2)cc1OCC(=O)NC1CCCCC1` (centres undefined), under setting [1], the AC50 is 31.6 µM [rising, single point].

As to `CCOC(=O)C(C)Sc1nc(-c2ccccn2)ncc1OC` (centres undefined), the AC50 under setting [2] is 0.0316 µM [falling, full curve, poor fit].

For the compound `CC(C)CCNC1=CC(=O)CC(c2ccccc2)C1` (centres undefined), the AC50 reads like this: under setting [2], 6.31 µM [falling, single point]; under setting [1], 4.47 µM [falling, partial curve, poor fit].

As for `Cc1n[nH]c(C)c1Cc1ccc(C(=O)O)cc1`, the half-maximal activity concentration (AC50) is, setting by setting: under setting [2], 3.16 µM [falling, full curve]; under setting [1], 3.55 µM [falling, full curve].

With `O=c1c2c(nc3c(-c4ccc(Cl)cc4)c[nH]n13)CCCC2`, the AC50 under setting [1] was 3.98 µM [rising, full curve].

For the compound `COc1cccc(/C=N/N2C(=O)CSC2=S)c1O`, the AC50 is, setting by setting: under setting [2], 11.2 µM [falling, partial curve]; under setting [1], 11.2 µM [falling, partial curve].

With `Cc1nc(NCCc2ccc(S(N)(=O)=O)cc2)c2c(C)c(C)sc2n1`, the AC50 under setting [1] is 7.94 µM [rising, partial curve].

As to `CCOC(=O)c1c(-c2ccc(C)cc2C)csc1NC(=O)CSc1nnnn1C`, the AC50 under setting [1] was 14.1 µM [rising, partial curve].
